Data as given in US20250243243A1, “DISRUPTION OF SONIC HEDGEHOG-SURF4 INTERACTION FOR CANCER TREATMENT” (The Hong Kong University of Science and Technology, priority 2022, published 2025).
Results are given in words; binding and its absence hold for the method and conditions named. Some entries that bind do so weakly or less than the wild type. Where a sequence is shown, tags or fusion partners need not be part of it.

Experiments:
[1] = target: T1, RRFR peptides (…); assay: pull-down on peptide-coupled beads, purified GST-SURF4(49-60) as prey, anti-GST immunoblot
T1 sequence (peptide, C-terminal cysteine added for coupling to thiopyridone-Sepharose 6B beads): VRRFRYPERPC

[2] = target: T1, RRFR peptides (…); assay: peptide pull-down, peptides on beads, anti-GST blot
[3] = target: T1, RRFR peptides (…); assay: quantification of the peptide pull-down (n=3), normalised to CW peptides

binding [1]: binds
binding [2]: binds
binding [3]: binds
Binder: SEQRDYIDTTWN (peptide, not shown: a dimerising Fc or GST) [GST-SURF4^49-60]
